These are yes or no findings as the source states them, for the method shown. Binding seen in cells or lysates may run through a third protein. Binding calls can cover weak binding; strength is not graded here.
Tests used:
[1] = target: Rab11 (mouse (endogenous in mLMECs)); assay: co-IP; lysates of control or NRP2 siRNA-transfected mLMECs grown 48 h on fibronectin; 100 μg protein incubated overnight at 4°C with protein-G Dynabeads coupled to an antibody (anti-NRP2; in the reverse direction anti-ITGA5 or anti-Rab11); Western blot
[2] = target: α5 integrin (ITGA5) (mouse (endogenous in mLMECs)); assay: as above

B1: Neuropilin-2 (NRP2) (receptor, UniProt O35375 21-931)
chain: RSQQDPPCGGRLNSKDAGYITSPGYPQDYPSHQNCEWIVYAPEPNQKIVLNFNPHFEIEKHDCKYDFIEIRDGDSESADLLGKHCGNIAPPTIISSGSVLYIKFTSDYARQGAGFSLRYEIFKTGSEDCSKNFTSPNGTIESPGFPEKYPHNLDCTFTILAKPRMEIILQFLTFDLEHDPLQVGEGDCKYDWLDIWDGIPHVGPLIGKYCGTKTPSKLRSSTGILSLTFHTDMAVAKDGFSARYYLIHQEPPENFQCNVPLGMESGRIANEQISASSTFSDGRWTPQQSRLHGDDNGWTPNLDSNKEYLQVDLRFLTMLTAIATQGAISRETQKGYYVKSYKLEVSTNGEDWMVYRHGKNHKIFQANNDATEVVLNKLHMPLLTRFIRIRPQTWHLGIALRLELFGCRVTDAPCSNMLGMLSGLIADTQISASSTREYLWSPSAARLVSSRSGWFPRNPQAQPGEEWLQVDLGTPKTVKGVIIQGARGGDSITAVEARAFVRKFKVSYSLNGKDWEYIQDPRTQQTKLFEGNMHYDTPDIRRFDPVPAQYVRVYPERWSPAGIGMRLEVLGCDWTDSKPTVETLGPTVKSEETTTPYPMDEDATECGENCSFEDDKDLQLPSGFNCNFDFPEETCGWVYDHAKWLRSTWISSANPNDRTFPDDKNFLKLQSDGRREGQYGRLISPPVHLPRSPVCMEFQYQAMGGHGVALQVVREASQESKLLWVIREDQGSEWKHGRIILPSYDMEYQIVFEGVIGKGRSGEISIDDIRISTDVPLENCMEPISAFAGEDFKVDIPETHGGEGYEDEIDDEYEGDWSNSSSSTSGAGDPSSGKEKSWLYTLDPILITIIAMSSLGVLLGATCAGLLLYCTCSYSGLSSRSCTTLENYNFELYDGLKHKVKINHQKCCSEA
binding [1]: binds | binding [2]: binds

From paper PMC7264094
